Reference: publication PMC7753874
These are yes or no findings as the source states them, for the method shown. In cells and extracts the contact can be indirect. Some results given as binding are weak or reduced against the parent protein; the word gives no strength.

The chains behind the UniProt entries cited, without tags or fusion partners.
UniProt Q8BUN5: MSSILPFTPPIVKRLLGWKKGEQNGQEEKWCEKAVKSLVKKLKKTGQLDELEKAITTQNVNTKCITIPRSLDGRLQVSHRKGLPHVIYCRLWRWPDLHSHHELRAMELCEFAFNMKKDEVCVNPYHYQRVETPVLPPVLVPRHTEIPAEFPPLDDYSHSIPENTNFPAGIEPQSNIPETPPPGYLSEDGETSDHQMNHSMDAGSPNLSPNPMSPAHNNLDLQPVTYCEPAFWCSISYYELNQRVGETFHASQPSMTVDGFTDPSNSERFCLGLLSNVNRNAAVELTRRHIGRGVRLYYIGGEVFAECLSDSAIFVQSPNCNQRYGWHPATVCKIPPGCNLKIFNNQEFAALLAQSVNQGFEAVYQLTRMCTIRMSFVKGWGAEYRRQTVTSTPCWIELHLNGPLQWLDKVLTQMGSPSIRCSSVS

Target: Smad3 (Sma and Mad homologue 3) of mouse lung pericytes (mouse (endogenous in mouse lung pericytes)) (UniProt Q8BUN5)
Test: co-IP; Pierce Co-Immunoprecipitation Kit; mouse lung pericytes transfected with the indicated plasmids, with or without FoxM1 overexpression; TGF-β1 5 ng/mL for 16 h (Smad4 with TIF1γ) or 2 h (Smad3 with TIF1γ)

B1: overexpressed TIF1γ (transcriptional intermediary factor 1 γ) in mouse lung pericytes (protein, UniProt Q99PP7 1-1142)
chain: MAENKGGGEAESGGGGSGSAPVTAGAAGPTAQEAEPPLAAVLVEEEEEEGGRAGAEGGAAGPDDGGVAAASSSSAPAASVPAASVGSAVPGGAASTPAPAAAPAPAPAPAPAPAPAPAPAPAPGSSSGPPLGPPASLLDTCAVCQQSLQSRREAEPKLLPCLHSFCLRCLPEPERQLSVPIPGGSNGDVQQVGVIRCPVCRQECRQIDLVDNYFVKDTSEAPSSSDEKSEQVCTSCEDNASAVGFCVECGEWLCKTCIEAHQRVKFTKDHLIRKKEDVSESVGTSGQRPVFCPVHKQEQLKLFCETCDRLTCRDCQLLEHKEHRYQFLEEAFQNQKGAIENLLAKLLEKKNYVHFAATQVQNRIKEVNETNKRVEQEIKVAIFTLINEINKKGKSLLQQLENVTKERQMKLLQQQNDITGLSRQVKHVMNFTNWAIASGSSTALLYSKRLITFQLRHILKARCDPVPAANGAIRFHCDPTFWAKNVVNLGNLVIESKPAPGYTPNVVVGQVPPGTNHISKTPGQINLAQLRLQHMQQQVYAQKHQQLQQMRLQQPPAPIPTTTATTQQHPRQAAPQMLQQQPPRLISVQTMQRGNMNCGAFQAHQMRLAQNAARIPGIPRHSAPQYSMMQPHLQRQHSNPGHAGPFPVVSAHNPINPTSPTTATMANANRGPTSPSVTAIELIPSVTNPENLPSLPDIPPIQLEDAGSSSLDNLLSRYISGSHLPPQPTSTMNPSPGPSALSPGSSGLSNSHTPVRPPSTSSTGSRGSCGSSGRTAEKSAHSFKSDQVKVKQEPGTEEEICSFSGAVKQEKTEDGRRSACMLSSPESSLTPPLSTNLHLESELDTLTGLENHVKTEPTDISESCKQSGLSNLVNGKSPIRNLMHRSARIGGDGNSKDDDPNEDWCAVCQNGGDLLCCEKCPKVFHLTCHVPTLLSFPSGDWICTFCRDIGKPEVEYDCDNMQHSKKGKTAQGLSPVDQRKCERLLLYLYCHELSIEFQEPVPVSIPNYYKIIKKPMDLSTVKKKLQKKHSQHYQIPDDFVADVRLIFKNCERFNEMMKVVQVYADTQEINLKGDSEVAKAGKAVALYFEDKLSEIYSDRTFTPLPEFEQDEDDGEVTEDSDEDFIQPRRKRLKSDERPVHIK
For B1, the binding was “binds”.
